Experiment in all cases: log2 fold change, soluble protein after heating vs DMSO (PISA); higher = thermal stabilisation; K562 cells, 10 uM, 30 min; active = over 0.2 and 3.5 SD of the protein, either way, in both replicates (recomputed)
Compound in assay [1]: NC(=O)Nc1cc(-c2cccc(F)c2)sc1C(=O)N[C@H]1CCCNC1
A digest of the protocol: (§1)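 K562 cells (2×10^6 cells/mL) were treated with 10 μM compound for 30 min, and aliquots were heated for 3 min over 48°C-58°C. Pooled aliquots were extracted in PBS with 0.5% NP-40 at 4°C, and the supernatant after 21,000xg for 90 min was measured by TMTpro 16plex LC-MS/MS with channel sums equalised. Reported thermal stability, relative to control samples and from duplicates, is a log2 fold change.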

The chains behind the UniProt entries cited, without tags or fusion partners. Where a name states a change or a piece, a line headed by the entry shows the natural chain unless it says otherwise.
UniProt P63010: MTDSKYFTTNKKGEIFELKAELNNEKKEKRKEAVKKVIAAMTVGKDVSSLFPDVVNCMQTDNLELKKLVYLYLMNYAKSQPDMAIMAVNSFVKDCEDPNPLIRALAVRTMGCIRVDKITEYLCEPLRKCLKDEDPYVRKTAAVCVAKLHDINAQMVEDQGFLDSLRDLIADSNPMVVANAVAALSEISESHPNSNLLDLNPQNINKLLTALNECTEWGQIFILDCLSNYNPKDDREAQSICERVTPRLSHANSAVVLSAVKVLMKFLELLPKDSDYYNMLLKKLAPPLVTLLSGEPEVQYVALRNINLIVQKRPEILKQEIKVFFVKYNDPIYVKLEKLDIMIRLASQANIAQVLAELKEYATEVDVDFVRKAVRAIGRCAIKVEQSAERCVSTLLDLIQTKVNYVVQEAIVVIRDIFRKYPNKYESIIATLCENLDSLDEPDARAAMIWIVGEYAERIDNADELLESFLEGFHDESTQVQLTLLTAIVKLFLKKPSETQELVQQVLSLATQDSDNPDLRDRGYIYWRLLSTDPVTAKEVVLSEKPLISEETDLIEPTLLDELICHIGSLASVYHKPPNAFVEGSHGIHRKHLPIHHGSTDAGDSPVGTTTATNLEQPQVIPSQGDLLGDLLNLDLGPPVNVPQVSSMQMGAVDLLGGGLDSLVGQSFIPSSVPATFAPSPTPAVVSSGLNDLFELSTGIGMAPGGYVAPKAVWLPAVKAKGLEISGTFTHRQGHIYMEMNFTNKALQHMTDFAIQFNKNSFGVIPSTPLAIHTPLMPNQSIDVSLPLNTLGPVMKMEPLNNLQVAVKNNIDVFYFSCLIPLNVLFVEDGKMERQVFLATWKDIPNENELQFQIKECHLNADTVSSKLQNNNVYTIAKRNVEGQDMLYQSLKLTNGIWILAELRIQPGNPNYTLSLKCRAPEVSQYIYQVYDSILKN
UniProt O14617: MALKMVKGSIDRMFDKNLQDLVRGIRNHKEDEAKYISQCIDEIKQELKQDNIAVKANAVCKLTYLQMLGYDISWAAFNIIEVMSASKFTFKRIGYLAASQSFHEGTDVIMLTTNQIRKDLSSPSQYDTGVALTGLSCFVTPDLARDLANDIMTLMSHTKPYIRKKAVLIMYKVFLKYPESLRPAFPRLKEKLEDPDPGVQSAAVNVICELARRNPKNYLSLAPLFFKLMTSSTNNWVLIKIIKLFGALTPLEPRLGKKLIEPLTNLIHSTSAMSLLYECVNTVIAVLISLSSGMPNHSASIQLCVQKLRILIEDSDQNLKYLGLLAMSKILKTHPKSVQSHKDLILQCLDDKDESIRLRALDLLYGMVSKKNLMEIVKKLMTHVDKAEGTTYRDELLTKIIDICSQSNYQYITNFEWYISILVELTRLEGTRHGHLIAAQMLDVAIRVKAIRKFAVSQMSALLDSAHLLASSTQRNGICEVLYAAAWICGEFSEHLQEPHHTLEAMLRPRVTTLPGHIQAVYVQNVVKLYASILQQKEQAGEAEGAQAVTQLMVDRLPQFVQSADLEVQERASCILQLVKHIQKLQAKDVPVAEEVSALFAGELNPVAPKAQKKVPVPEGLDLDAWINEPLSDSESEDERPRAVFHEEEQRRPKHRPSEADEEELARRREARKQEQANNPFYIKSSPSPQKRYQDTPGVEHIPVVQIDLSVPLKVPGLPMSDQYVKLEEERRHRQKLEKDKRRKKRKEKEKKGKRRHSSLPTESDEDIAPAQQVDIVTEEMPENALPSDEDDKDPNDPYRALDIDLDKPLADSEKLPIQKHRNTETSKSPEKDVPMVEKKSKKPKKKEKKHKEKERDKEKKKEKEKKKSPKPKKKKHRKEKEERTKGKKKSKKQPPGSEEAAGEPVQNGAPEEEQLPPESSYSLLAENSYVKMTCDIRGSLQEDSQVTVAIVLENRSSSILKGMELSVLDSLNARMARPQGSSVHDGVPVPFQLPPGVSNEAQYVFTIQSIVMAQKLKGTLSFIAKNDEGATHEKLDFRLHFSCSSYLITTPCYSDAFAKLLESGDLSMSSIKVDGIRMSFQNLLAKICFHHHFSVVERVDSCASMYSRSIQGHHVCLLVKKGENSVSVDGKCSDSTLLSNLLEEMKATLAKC
UniProt Q8N6T3: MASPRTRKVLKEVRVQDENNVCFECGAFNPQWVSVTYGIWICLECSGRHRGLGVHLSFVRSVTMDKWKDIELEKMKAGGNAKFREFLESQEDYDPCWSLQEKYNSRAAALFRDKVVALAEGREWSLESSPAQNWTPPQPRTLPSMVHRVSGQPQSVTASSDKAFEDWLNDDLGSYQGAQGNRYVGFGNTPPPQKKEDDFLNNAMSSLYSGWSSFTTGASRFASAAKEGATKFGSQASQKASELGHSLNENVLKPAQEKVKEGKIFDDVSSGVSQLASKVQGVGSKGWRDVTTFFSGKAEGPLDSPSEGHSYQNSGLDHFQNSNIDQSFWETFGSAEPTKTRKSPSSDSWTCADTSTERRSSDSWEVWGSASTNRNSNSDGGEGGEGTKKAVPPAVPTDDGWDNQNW
UniProt Q9H8Y5: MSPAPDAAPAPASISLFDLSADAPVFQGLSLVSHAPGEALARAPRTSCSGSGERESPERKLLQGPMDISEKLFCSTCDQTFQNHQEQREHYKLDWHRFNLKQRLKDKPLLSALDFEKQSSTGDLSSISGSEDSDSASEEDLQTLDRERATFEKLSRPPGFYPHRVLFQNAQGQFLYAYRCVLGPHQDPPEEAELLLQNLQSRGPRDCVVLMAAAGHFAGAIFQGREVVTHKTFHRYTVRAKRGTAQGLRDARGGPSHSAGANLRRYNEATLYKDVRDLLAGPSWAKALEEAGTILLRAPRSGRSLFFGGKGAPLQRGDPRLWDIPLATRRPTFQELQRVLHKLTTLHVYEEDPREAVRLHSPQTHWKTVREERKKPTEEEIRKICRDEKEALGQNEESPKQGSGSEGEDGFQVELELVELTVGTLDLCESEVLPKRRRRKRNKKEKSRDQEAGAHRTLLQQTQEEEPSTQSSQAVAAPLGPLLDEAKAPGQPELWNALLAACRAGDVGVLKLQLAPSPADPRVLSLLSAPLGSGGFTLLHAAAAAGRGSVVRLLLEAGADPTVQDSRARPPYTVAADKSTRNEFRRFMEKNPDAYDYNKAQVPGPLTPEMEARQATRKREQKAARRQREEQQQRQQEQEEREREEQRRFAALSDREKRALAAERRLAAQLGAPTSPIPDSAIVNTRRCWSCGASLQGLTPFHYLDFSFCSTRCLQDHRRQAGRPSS
UniProt P27695, whole entry, looked up: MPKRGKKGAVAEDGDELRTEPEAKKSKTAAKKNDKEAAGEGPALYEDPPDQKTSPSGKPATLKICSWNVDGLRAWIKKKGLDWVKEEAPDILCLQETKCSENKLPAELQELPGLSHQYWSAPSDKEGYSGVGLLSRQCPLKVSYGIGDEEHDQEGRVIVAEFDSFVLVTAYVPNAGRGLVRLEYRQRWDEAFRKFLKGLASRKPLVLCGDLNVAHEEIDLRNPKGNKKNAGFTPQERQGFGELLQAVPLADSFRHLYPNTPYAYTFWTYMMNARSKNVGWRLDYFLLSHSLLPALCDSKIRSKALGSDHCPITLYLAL
UniProt P08133: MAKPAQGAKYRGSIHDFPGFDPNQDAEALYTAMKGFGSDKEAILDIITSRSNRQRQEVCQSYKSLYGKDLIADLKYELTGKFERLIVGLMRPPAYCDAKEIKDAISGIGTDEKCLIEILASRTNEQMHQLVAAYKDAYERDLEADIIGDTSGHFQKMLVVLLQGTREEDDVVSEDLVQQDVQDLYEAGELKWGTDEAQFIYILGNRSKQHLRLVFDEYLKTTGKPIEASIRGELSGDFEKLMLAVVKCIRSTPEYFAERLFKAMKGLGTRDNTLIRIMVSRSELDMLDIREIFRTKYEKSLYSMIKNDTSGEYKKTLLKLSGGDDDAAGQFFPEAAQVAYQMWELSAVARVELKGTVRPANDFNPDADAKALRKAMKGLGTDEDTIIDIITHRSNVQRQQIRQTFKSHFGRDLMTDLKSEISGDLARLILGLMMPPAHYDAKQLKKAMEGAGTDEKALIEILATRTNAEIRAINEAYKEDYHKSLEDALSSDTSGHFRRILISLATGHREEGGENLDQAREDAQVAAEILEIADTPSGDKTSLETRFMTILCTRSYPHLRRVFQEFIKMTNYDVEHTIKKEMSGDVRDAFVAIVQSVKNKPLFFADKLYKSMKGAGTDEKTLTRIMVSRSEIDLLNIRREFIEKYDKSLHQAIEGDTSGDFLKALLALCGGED
UniProt P58335, whole entry, looked up: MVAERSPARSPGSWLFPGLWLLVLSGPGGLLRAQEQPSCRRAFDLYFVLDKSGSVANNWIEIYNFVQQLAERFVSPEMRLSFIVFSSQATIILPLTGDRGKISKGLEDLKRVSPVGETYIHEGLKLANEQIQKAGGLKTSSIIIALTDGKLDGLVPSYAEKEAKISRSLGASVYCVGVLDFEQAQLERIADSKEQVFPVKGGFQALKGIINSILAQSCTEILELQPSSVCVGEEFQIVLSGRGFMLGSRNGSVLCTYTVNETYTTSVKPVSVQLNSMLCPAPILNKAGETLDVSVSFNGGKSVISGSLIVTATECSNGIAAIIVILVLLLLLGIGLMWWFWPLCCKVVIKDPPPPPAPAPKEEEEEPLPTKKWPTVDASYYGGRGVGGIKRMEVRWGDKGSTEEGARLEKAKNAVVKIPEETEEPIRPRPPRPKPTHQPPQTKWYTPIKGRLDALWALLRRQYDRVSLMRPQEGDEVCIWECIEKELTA
UniProt Q92688: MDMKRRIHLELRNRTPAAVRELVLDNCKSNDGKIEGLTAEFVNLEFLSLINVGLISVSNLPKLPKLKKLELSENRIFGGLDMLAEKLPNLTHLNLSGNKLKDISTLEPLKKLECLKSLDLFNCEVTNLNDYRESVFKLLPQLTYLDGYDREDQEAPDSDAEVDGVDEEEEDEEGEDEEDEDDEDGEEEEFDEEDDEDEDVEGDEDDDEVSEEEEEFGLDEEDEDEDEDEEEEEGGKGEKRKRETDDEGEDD
UniProt O94973, whole entry, looked up: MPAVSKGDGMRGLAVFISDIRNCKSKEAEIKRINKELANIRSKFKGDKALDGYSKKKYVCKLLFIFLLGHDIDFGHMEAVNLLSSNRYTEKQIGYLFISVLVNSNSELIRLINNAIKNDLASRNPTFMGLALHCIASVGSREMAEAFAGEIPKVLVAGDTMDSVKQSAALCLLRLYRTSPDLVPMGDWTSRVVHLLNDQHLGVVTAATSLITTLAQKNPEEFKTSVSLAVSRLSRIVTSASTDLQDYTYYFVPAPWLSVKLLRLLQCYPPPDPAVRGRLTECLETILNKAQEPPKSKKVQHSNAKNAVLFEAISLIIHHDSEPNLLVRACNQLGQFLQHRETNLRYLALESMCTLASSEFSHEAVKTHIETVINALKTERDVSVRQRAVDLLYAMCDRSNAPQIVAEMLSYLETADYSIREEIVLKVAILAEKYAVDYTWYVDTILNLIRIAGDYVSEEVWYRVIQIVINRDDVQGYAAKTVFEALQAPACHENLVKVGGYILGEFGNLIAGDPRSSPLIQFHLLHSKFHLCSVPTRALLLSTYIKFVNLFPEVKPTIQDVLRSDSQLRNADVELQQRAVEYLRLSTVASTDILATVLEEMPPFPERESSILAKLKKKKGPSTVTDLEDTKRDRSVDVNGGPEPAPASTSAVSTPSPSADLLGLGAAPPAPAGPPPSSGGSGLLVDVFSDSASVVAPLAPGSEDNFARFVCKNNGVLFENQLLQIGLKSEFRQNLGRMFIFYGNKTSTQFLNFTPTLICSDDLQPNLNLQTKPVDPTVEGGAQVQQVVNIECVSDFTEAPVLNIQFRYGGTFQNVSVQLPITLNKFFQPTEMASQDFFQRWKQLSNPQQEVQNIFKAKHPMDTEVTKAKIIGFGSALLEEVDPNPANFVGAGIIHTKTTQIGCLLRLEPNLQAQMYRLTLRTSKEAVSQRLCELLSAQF
UniProt Q63HQ0: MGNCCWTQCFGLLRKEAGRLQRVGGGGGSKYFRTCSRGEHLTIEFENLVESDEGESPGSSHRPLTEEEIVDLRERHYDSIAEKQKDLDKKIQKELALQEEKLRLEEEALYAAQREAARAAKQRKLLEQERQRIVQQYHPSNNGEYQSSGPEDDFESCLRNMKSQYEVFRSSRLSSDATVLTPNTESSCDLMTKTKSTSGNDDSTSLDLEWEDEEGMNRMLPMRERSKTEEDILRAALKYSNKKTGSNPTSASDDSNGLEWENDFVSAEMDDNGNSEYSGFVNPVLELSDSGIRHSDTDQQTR
UniProt P02649, whole entry, looked up: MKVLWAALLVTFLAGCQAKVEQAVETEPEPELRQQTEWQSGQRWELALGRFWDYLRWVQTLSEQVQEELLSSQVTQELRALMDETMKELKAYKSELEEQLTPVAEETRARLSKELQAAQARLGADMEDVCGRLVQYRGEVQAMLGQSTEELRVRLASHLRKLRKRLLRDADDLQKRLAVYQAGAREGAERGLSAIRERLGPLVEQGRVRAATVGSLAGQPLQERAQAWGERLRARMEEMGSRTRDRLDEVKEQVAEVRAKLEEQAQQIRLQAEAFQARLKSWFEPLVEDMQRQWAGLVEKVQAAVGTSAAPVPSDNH

Compound in assay [2]: NC(=O)c1cnc(N[C@@H]2CCCC[C@@H]2N)nc1Nc1cccc(-n2nccn2)c1
A digest of the protocol: as §1

Compound in assay [3]: NC1(c2ccc(-c3nc4ccn5c(=O)[nH]nc5c4cc3-c3ccccc3)cc2)CCC1
The method, boiled down: as §1

Compound in assay [4]: NCC(=O)Nc1ccc(-n2nc(C(F)(F)F)cc2-c2ccc3c(ccc4ccccc43)c2)cc1
A digest of the protocol:
as §1

Compound in a further assay: Nc1ccccc1NC(=O)c1ccc(CNC(=O)OCc2cccnc2)cc1 [entinostat]
The method, boiled down: as §1

Compound in the next assay: O=C(CCCCCCC(=O)Nc1ccccc1)NO [vorinostat]
A digest of the protocol:
as §1

Compound in the next assay: O=C(CCCCCCNC(=O)c1cnc(N(c2ccccc2)c2ccccc2Cl)nc1)NO [citarinostat]
A digest of the protocol: as §1

Compound in another assay: O=C(O)c1ccc2c(c1)nc(Nc1cccc(Cl)c1)c1ccncc12 [silmitasertib]
A digest of the protocol:
as §1

Compound in assay [5]: O=C1NC(=O)C(c2cnc3ccccn23)=C1c1cn2c3c(cc(F)cc13)CN(C(=O)N1CCCCC1)CC2
The method, boiled down:
as §1

Compound in assay [6]: c1cc(OCCN2CCCCC2)cc(-c2n[nH]c3ccc(-c4nnc[nH]4)cc23)c1
A digest of the protocol:
as §1

This is one part of the list.

Consider AP2B1 isoform 2 (UniProt P63010), for which the log2 fold change was active: -0.225 in assay [1]; inactive: 0.01 in assay [2]; inactive: 0.037 in [3]; inactive: 0.002 in [4]; inactive: 0 in the assay with entinostat; inactive: 0.01 with vorinostat. The log2 fold change was inactive: 0.019 in the assay with citarinostat, inactive: 0.02 with silmitasertib, inactive: -0.202 in assay [5] and inactive: -0.182 in assay [6].

On to ARF6 (UniProt P62330), for which the log2 fold change in [1] was inactive: -0.071; in [2] it was inactive: 0.056; in [3] it was inactive: -0.07; in assay [4] it was inactive: -0.093; with entinostat, inactive: -0.062; with vorinostat it was inactive: 0.025. Besides, the log2 fold change was inactive: 0.026 in the assay with citarinostat, inactive: 0.047 with silmitasertib, inactive: -0.009 in assay [5] and inactive: -0.052 in [6].

In the case of AP3D1 isoform 5 (UniProt O14617), the log2 fold change in [1] is inactive: -0.011; in assay [2] it was inactive: -0.013; in [3], inactive: -0.076; in assay [4], inactive: 0.013; in the assay with entinostat it was inactive: 0.021; in the assay with vorinostat it was inactive: 0.022. Further, the log2 fold change in the assay with citarinostat is inactive: 0.054; in the assay with silmitasertib, inactive: 0.022; in assay [5] it was inactive: -0.003; in assay [6], inactive: -0.019.

For the target ARFGEF1 (UniProt Q9Y6D6), the log2 fold change in assay [1] is inactive: 0.028; in assay [2], inactive: 0.121; in assay [3], inactive: -0.023; in [4], inactive: 0.006; with entinostat, inactive: -0.044; with vorinostat it was inactive: 0.02. Besides, the log2 fold change in the assay with citarinostat was inactive: 0.009; with silmitasertib, inactive: 0.065; in [5] it was inactive: 0.023; in assay [6] it was inactive: 0.069.

As for ARFGAP1 (UniProt Q8N6T3), the log2 fold change is inactive: -0.036 in [1]; inactive: -0.033 in assay [2]; inactive: -0.073 in [3]; inactive: -0.052 in assay [4]; inactive: 0.041 with entinostat; inactive: 0.006 with vorinostat. Further, the log2 fold change is inactive: 0.056 in the assay with citarinostat, inactive: 0.063 with silmitasertib, inactive: -0.092 in assay [5] and inactive: 0.035 in assay [6].

On to APOB (UniProt P04114), for which the log2 fold change was inactive: -0.206 in assay [1]; inactive: -0.387 in assay [2]; active: -0.621 in assay [3]; active: -0.806 in [4]; inactive: 0.042 with entinostat; inactive: -0.009 in the assay with vorinostat. The log2 fold change was inactive: 0.015 with citarinostat, inactive: 0.068 in the assay with silmitasertib, inactive: 0.001 in [5] and inactive: 0.056 in [6].

For the target ANKZF1 (UniProt Q9H8Y5), the log2 fold change was inactive: -0.008 in assay [1]; inactive: 0.026 in [2]; inactive: 0.072 in [3]; inactive: -0.001 in assay [4]; inactive: 0.03 with entinostat; inactive: 0.054 with vorinostat. The log2 fold change with citarinostat is inactive: -0.006; with silmitasertib, inactive: -0.051; in assay [5], inactive: 0.215; in [6], inactive: -0.065.

For the target APEX1 (UniProt P27695), the log2 fold change in assay [1] was inactive: -0.046; in [2], inactive: -0.029; in assay [3], inactive: -0.088; in assay [4], inactive: -0.089; with entinostat it was inactive: 0.033; with vorinostat it was inactive: 0.038. In addition, the log2 fold change was inactive: 0.061 with citarinostat, inactive: -0.068 in the assay with silmitasertib, inactive: -0.111 in assay [5] and inactive: 0.05 in assay [6].

For the target ANXA6 (UniProt P08133), the log2 fold change was inactive: -0.048 in [1]; inactive: -0.084 in assay [2]; inactive: -0.18 in assay [3]; inactive: -0.125 in assay [4]; inactive: 0.007 with entinostat; inactive: 0.005 with vorinostat. Besides, the log2 fold change in the assay with citarinostat is inactive: 0.029; in the assay with silmitasertib, inactive: 0.061; in assay [5] it was inactive: -0.005; in [6], inactive: -0.114.

As to ANTXR2 isoform 4 (UniProt P58335), the log2 fold change was inactive: -0.105 in assay [1]; inactive: 0.014 in [2]; inactive: 0.029 in assay [3]; inactive: 0.021 in [4]; inactive: -0.052 with entinostat; inactive: -0.013 in the assay with vorinostat. Also, the log2 fold change was inactive: 0.04 with citarinostat, inactive: 0.032 with silmitasertib, inactive: -0.027 in [5] and inactive: -0.068 in assay [6].

In the case of ANAPC16 (UniProt Q96DE5), the log2 fold change was inactive: -0.326 in [1]; inactive: -0.164 in assay [2]; inactive: -0.052 in [3]; inactive: 0.029 in [4]; inactive: -0.206 with entinostat; inactive: -0.023 with vorinostat. Also, the log2 fold change with citarinostat is inactive: 0.009; in the assay with silmitasertib, inactive: 0.023; in [5], inactive: -0.06; in assay [6], inactive: -0.024.

For the target ANP32B (UniProt Q92688), the log2 fold change in assay [1] was inactive: -0.123; in assay [2] it was inactive: -0.047; in [3], inactive: -0.01; in assay [4] it was inactive: -0.047; with entinostat it was inactive: -0.041; with vorinostat, inactive: 0.002. The log2 fold change with citarinostat was inactive: 0.026; with silmitasertib it was inactive: -0.03; in [5], inactive: -0.157; in [6], inactive: -0.005.

Take AP2A2 isoform 2 (UniProt O94973): the log2 fold change is inactive: -0.155 in assay [1]; inactive: 0.052 in assay [2]; inactive: -0.003 in [3]; inactive: -0.013 in assay [4]; inactive: 0.002 in the assay with entinostat; inactive: 0.034 with vorinostat. The log2 fold change with citarinostat is inactive: -0.023; with silmitasertib it was inactive: -0.016; in [5], inactive: -0.113; in [6], inactive: -0.156.

On to AP1AR (UniProt Q63HQ0), for which the log2 fold change in assay [1] is inactive: -0.038; in assay [2], inactive: 0; in assay [3], inactive: 0.241; in [4], inactive: 0.045; in the assay with entinostat, inactive: -0.068; in the assay with vorinostat, inactive: -0.049. In addition, the log2 fold change with citarinostat is inactive: 0.091; with silmitasertib it was inactive: 0.015; in assay [5], inactive: -0.005; in assay [6], inactive: 0.06.

Turning to APOE (UniProt P02649), the log2 fold change in assay [1] was inactive: 0.01; in [2], inactive: 0.041; in assay [3], inactive: 0.018; in assay [4], inactive: 0.026; with entinostat, inactive: -0.06; with vorinostat it was inactive: 0.021. Moreover, the log2 fold change in the assay with citarinostat is inactive: 0.011; with silmitasertib it was inactive: -0.028; in [5], inactive: 0.043; in [6], inactive: 0.039.

(Values after the supplement of paper PMC10849652.)
